These are yes or no findings as the source states them, for the method shown. Some binding calls cover weakened binding; strength is not graded here.
Molecular target: RSV A2 F 삼량체 (ILZ-8xHIS에 융합된 F 단백질) (Respiratory Syncytial Virus (RSV), strain A2) (UniProt P03420)
Assay: intracellular staining (FACS) of 293T cells transfected with the F-ILZ-8xHIS construct (Fig. 3d)

Protein sequences, listed by entry. Tags and fused reporters are not part of them. Residues count along the entry.
UniProt P03420, residues 26-524: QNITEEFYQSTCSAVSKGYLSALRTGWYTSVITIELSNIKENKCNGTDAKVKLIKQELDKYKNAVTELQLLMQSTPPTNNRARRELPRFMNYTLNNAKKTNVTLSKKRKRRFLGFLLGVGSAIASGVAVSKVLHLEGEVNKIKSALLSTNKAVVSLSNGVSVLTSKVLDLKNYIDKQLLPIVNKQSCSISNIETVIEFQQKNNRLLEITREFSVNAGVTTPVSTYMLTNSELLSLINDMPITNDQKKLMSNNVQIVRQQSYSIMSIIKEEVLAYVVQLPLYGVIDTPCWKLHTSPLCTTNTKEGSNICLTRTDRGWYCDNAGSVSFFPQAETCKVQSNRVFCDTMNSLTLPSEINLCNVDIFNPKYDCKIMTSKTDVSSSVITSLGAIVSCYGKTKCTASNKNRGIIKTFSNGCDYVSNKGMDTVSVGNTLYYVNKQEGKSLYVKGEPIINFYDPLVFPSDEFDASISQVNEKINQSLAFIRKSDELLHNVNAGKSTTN

B1: AM22 (antibody, V domains shown)
VH: QVQLVQSGAEVKKPGATVKVSCKISGHTLIKLSIHWVRQAPGKGLEWMGGYEGEVDEIFYAQKFQHRLTVIADTATDTVYMELGRLTSDDTAVYFCGTLGVTVTEAGLGIDDYWGQGTLVTVSS
VL: EIVLTQSPGTLSLSPGERATLSCRASQIVSRNHLAWYQQKPGQAPRLLIFGASSRATGIPVRFSGSGSGTDFTLTINGLAPEDFAVYYCLSSDSSIFTFGPGTKVDFK
Q: How did the binding turn out when B1 was run?
A: Its binding is “binds”.

From patent KR20120084755A
